From PMC7028737

Protein sequences, listed by entry. Tags and fused reporters are not part of them. Lines headed by an entry give the natural chain unless they say otherwise; changes in a name come on top. Chains listed by the source or under a name are the forms on record and can include a tag or linker.
FIR-FLAG (far-upstream element-binding protein (FUBP) 1-interacting repressor) (Q9UHX1, form named): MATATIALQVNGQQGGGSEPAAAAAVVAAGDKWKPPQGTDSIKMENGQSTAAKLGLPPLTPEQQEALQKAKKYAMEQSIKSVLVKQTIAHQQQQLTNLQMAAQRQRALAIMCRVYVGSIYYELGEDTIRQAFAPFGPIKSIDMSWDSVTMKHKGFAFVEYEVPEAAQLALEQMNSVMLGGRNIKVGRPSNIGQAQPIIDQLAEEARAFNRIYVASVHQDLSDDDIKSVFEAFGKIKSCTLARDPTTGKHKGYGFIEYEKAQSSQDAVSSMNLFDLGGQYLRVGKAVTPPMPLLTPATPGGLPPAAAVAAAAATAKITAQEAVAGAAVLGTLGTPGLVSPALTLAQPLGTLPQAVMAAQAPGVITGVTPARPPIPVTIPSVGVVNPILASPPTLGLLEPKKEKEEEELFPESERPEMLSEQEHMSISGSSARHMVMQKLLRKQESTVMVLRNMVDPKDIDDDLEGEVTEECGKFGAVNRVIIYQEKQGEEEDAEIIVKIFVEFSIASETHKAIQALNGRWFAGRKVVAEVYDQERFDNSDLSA

Experiments:
[1] = target: FIR-FLAG (far-upstream element-binding protein (FUBP) 1-interacting repressor) (human) (UniProt Q9UHX1); experiment: affinity purification with mass spectrometry; Flag-conjugated beads pull down of FIR-FLAG or FIRΔexon2-FLAG from HeLa cells, GeLC-MS / LC-MS; data first obtained with the cell systems of ref. 9 and re-evaluated here
FIRΔexon2-FLAG (human) = experiment: as above

Binder | binding [1] | binding (FIRΔexon2-FLAG (human))
WD-repeat-containing protein 75 (protein, UniProt Q8IWA0 1-830) MVEEENIRVVRCGGSELNFRRAVFSADSKYIFCVSGDFVKVYSTVTEECVHILHGHRNLVTGIQLNPNNHLQLYSCSLDGTIKLWDYIDGILIKTFIVGCKLHALFTLAQAEDSVFVIVNKEKPDIFQLVSVKLPKSSSQEVEAKELSFVLDYINQSPKCIAFGNEGVYVAAVREFYLSVYFFKKKTTSRFTLSSSRNKKHAKNNFTCVACHPTEDCIASGHMDGKIRLWRNFYDDKKYTYTCLHWHHDMVMDLAFSVTGTSLLSGGRESVLVEWRDATEKNKEFLPRLGATIEHISVSPAGDLFCTSHSDNKIIIIHRNLEASAVIQGLVKDRSIFTGLMIDPRTKALVLNGKPGHLQFYSLQSDKQLYNLDIIQQEYINDYGLIQIELTKAAFGCFGNWLATVEQRQEKETELELQMKLWMYNKKTQGFILNTKINMPHEDCITALCFCNAEKSEQPTLVTASKDGYFKVWILTDDSDIYKKAVGWTCDFVGSYHKYQATNCCFSEDGSLLAVSFEEIVTIWDSVTWELKCTFCQRAGKIRHLCFGRLTCSKYLLGATENGILCCWNLLSCALEWNAKLNVRVMEPDPNSENIAAISQSSVGSDLFVFKPSEPRPLYIQKGISREKVQWGVFVPRDVPESFTSEAYQWLNRSQFYFLTKSQSLLTFSTKSPEEKLTPTSKQLLAEESLPTTPFYFILGKHRQQQDEKLNETLENELVQLPLTENIPAISELLHTPAHVLPSAAFLCSMFVNSLLLSKETKSAKEIPEDVDMEEEKESEDSDEENDFTEKVQDTSNTGLGEDIIHQLSKSEEKELRKFRKIDYSWIAAL | binds | binds
CCAAT/enhancer-binding protein zeta (protein, UniProt Q03701 1-1054) MAAVKEPLEFHAKRPWRPEEAVEDPDEEDEDNTSEAENGFSLEEVLRLGGTKQDYLMLATLDENEEVIDGGKKGAIDDLQQGELEAFIQNLNLAKYTKASLVEEDEPAEKENSSKKEVKIPKINNKNTAESQRTSVNKVKNKNRPEPHSDENGSTTPKVKKDKQNIFEFFERQTLLLRPGGKWYDLEYSNEYSLKPQPQDVVSKYKTLAQKLYQHEINLFKSKTNSQKGASSTWMKAIVSSGTLGDRMAAMILLIQDDAVHTLQFVETLVNLVKKKGSKQQCLMALDTFKELLITDLLPDNRKLRIFSQRPFDKLEQLSSGNKDSRDRRLILWYFEHQLKHLVAEFVQVLETLSHDTLVTTKTRALTVAHELLCNKPEEEKALLVQVVNKLGDPQNRIATKASHLLETLLCKHPNMKGVVSGEVERLLFRSNISSKAQYYAICFLNQMALSHEESELANKLITVYFCFFRTCVKKKDVESKMLSALLTGVNRAYPYSQTGDDKVREQIDTLFKVLHIVNFNTSVQALMLLFQVMNSQQTISDRYYTALYRKMLDPGLMTCSKQAMFLNLVYKSLKADIVLRRVKAFVKRLLQVTCQQMPPFICGALYLVSEILKAKPGLRSQLDDHPESDDEENFIDANDDEDMEKFTDADKETEIVKKLETEETVPETDVETKKPEVASWVHFDNLKGGKQLNKYDPFSRNPLFCGAENTSLWELKKLSVHFHPSVALFAKTILQGNYIQYSGDPLQDFTLMRFLDRFVYRNPKPHKGKENTDSVVMQPKRKHFIKDIRHLPVNSKEFLAKEESQIPVDEVFFHRYYKKVAVKEKQKRDADEESIEDVDDEEFEELIDTFEDDNCFSSGKDDMDFAGNVKKRTKGAKDNTLDEDSEGSDDELGNLDDDEVSLGSMDDEEFAEVDEDGGTFMDVLDDESESVPELEVHSKVSTKKSKRKGTDDFDFAGSFQGPRKKKRNLNDSSLFVSAEEFGHLLDENMGSKFDNIGMNAMANKDNASLKQLRWEAERDDWLHNRDAKSIIKKKKHFKKKRIKTTQKTKKQRK | binds | binds
ATP-dependent RNA helicase DDX24 (protein, UniProt Q9GZR7 1-859) MKLKDTKSRPKQSSCGKFQTKGIKVVGKWKEVKIDPNMFADGQMDDLVCFEELTDYQLVSPAKNPSSLFSKEAPKRKAQAVSEEEEEEEGKSSSPKKKIKLKKSKNVATEGTSTQKEFEVKDPELEAQGDDMVCDDPEAGEMTSENLVQTAPKKKKNKGKKGLEPSQSTAAKVPKKAKTWIPEVHDQKADVSAWKDLFVPRPVLRALSFLGFSAPTPIQALTLAPAIRDKLDILGAAETGSGKTLAFAIPMIHAVLQWQKRNAAPPPSNTEAPPGETRTEAGAETRSPGKAEAESDALPDDTVIESEALPSDIAAEARAKTGGTVSDQALLFGDDDAGEGPSSLIREKPVPKQNENEEENLDKEQTGNLKQELDDKSATCKAYPKRPLLGLVLTPTRELAVQVKQHIDAVARFTGIKTAILVGGMSTQKQQRMLNRRPEIVVATPGRLWELIKEKHYHLRNLRQLRCLVVDEADRMVEKGHFAELSQLLEMLNDSQYNPKRQTLVFSATLTLVHQAPARILHKKHTKKMDKTAKLDLLMQKIGMRGKPKVIDLTRNEATVETLTETKIHCETDEKDFYLYYFLMQYPGRSLVFANSISCIKRLSGLLKVLDIMPLTLHACMHQKQRLRNLEQFARLEDCVLLATDVAARGLDIPKVQHVIHYQVPRTSEIYVHRSGRTARATNEGLSLMLIGPEDVINFKKIYKTLKKDEDIPLFPVQTKYMDVVKERIRLARQIEKSEYRNFQACLHNSWIEQAAAALEIELEEDMYKGGKADQQEERRRQKQMKVLKKELRHLLSQPLFTESQKTKYPTQSGKPPLLVSAPSKSESALSCLSKQKKKKTKKPKEPQPEQPQPSTSAN | binds | binds
Isoform 1 of Transformer-2 protein homolog beta (protein, UniProt P62995 1-288) MSDSGEQNYGERESRSASRSGSAHGSGKSARHTPARSRSKEDSRRSRSKSRSRSESRSRSRRSSRRHYTRSRSRSRSHRRSRSRSYSRDYRRRHSHSHSPMSTRRRHVGNRANPDPNCCLGVFGLSLYTTERDLREVFSKYGPIADVSIVYDQQSRRSRGFAFVYFENVDDAKEAKERANGMELDGRRIRVDFSITKRPHTPTPGIYMGRPTYGSSRRRDYYDRGYDRGYDDRDYYSRSYRGGGGGGGGWRAAQDRDQIYRRRSPSPYYSRGGYRSRSRSRSYSPRRY | binds | binds
WD-repeat-containing protein 43 (protein, UniProt Q15061 1-677) MAAGGGGSCDPLAPAGVPCAFSPHSQAYFALASTDGHLRVWETANNRLHQEYVPSAHLSGTCTCLAWAPARLQAKESPQRKKRKSEAVGMSNQTDLLALGTAVGSILLYSTVKGELHSKLISGGHDNRVNCIQWHQDSGCLYSCSDDKHIVEWNVQTCKVKCKWKGDNSSVSSLCISPDGKMLLSAGRTIKLWVLETKEVYRHFTGHATPVSSLMFTTIRPPNESQPFDGITGLYFLSGAVHDRLLNVWQVRSENKEKSAVMSFTVTDEPVYIDLTLSENKEEPVKLAVVCRDGQVHLFEHILNGYCKKPLTSNCTIQIATPGKGKKSTPKPIPILAAGFCSDKMSLLLVYGSWFQPTIERVALNSREPHMCLVRDISNCWAPKVETAITKVRTPVMNSEAKVLVPGIPGHHAAIKPAPPQTEQVESKRKSGGNEVSIEERLGAMDIDTHKKGKEDLQTNSFPVLLTQGLESNDFEMLNKVLQTRNVNLIKKTVLRMPLHTIIPLLQELTKRLQGHPNSAVLMVQWLKCVLTVHASYLSTLPDLVPQLGTLYQLMESRVKTFQKLSHLHGKLILLITQVTASEKTKGATSPGQKAKLVYEEESSEEESDDEIADKDSEDNWDEDEEESESEKDEDVEEEDEDAEGKDEENGEDRDTASEKELNGDSDLDPENESEEE | binds | binds
Thyroid hormone receptor-associated protein 3 (protein, UniProt Q9Y2W1 1-955) MSKTNKSKSGSRSSRSRSASRSRSRSFSKSRSRSRSLSRSRKRRLSSRSRSRSYSPAHNRERNHPRVYQNRDFRGHNRGYRRPYYFRGRNRGFYPWGQYNRGGYGNYRSNWQNYRQAYSPRRGRSRSRSPKRRSPSPRSRSHSRNSDKSSSDRSRRSSSSRSSSNHSRVESSKRKSAKEKKSSSKDSRPSQAAGDNQGDEAKEQTFSGGTSQDTKASESSKPWPDATYGTGSASRASAVSELSPRERSPALKSPLQSVVVRRRSPRPSPVPKPSPPLSSTSQMGSTLPSGAGYQSGTHQGQFDHGSGSLSPSKKSPVGKSPPSTGSTYGSSQKEESAASGGAAYTKRYLEEQKTENGKDKEQKQTNTDKEKIKEKGSFSDTGLGDGKMKSDSFAPKTDSEKPFRGSQSPKRYKLRDDFEKKMADFHKEEMDDQDKDKAKGRKESEFDDEPKFMSKVIGANKNQEEEKSGKWEGLVYAPPGKEKQRKTEELEEESFPERSKKEDRGKRSEGGHRGFVPEKNFRVTAYKAVQEKSSSPPPRKTSESRDKLGAKGDFPTGKSSFSITREAQVNVRMDSFDEDLARPSGLLAQERKLCRDLVHSNKKEQEFRSIFQHIQSAQSQRSPSELFAQHIVTIVHHVKEHHFGSSGMTLHERFTKYLKRGTEQEAAKNKKSPEIHRRIDISPSTFRKHGLAHDEMKSPREPGYKAEGKYKDDPVDLRLDIERRKKHKERDLKRGKSRESVDSRDSSHSRERSAEKTEKTHKGSKKQKKHRRARDRSRSSSSSSQSSHSYKAEEYTEETEEREESTTGFDKSRLGTKDFVGPSERGGGRARGTFQFRARGRGWGRGNYSGNNNNNSNNDFQKRNREEEWDPEYTPKSKKYYLHDDREGEGSDKWVSRGRGRGAFPRGRGRFMFRKSSTSPKWAHDKFSGEEGEIEDDESGTENREEKDNIQPTTE | binds | binds
Forty-two-three domain-containing protein 1 (protein, UniProt Q96QD9 1-318) MNRFGTRLVGATATSSPPPKARSNENLDKIDMSLDDIIKLNRKEGKKQNFPRLNRRLLQQSGAQQFRMRVRWGIQQNSGFGKTSLNRRGRVMPGKRRPNGVITGLAARKTTGIRKGISPMNRPPLSDKNIEQYFPVLKRKANLLRQNEGQRKPVAVLKRPSQLSRKNNIPANFTRSGNKLNHQKDTRQATFLFRRGLKVQAQLNTEQLLDDVVAKRTRQWRTSTTNGGILTVSIDNPGAVQCPVTQKPRLTRTAVPSFLTKREQSDVKKVPKGVPLQFDINSVGKQTGMTLNERFGILKEQRATLTYNKGGSRFVTVG | binds | binds
Uncharacterized protein C19orf21 (protein, UniProt Q8IVT2 1-679) MDRVTRYPILGIPQAHRGTGLVLDGDTSYTYHLVCMGPEASGWGQDEPQTWPTDHRAQQGVQRQGVSYSVHAYTGQPSPRGLHSENREDEGWQVYRLGARDAHQGRPTWALRPEDGEDKEMKTYRLDAGDADPRRLCDLERERWAVIQGQAVRKSSTVATLQGTPDHGDPRTPGPPRSTPLEENVVDREQIDFLAARQQFLSLEQANKGAPHSSPARGTPAGTTPGASQAPKAFNKPHLANGHVVPIKPQVKGVVREENKVRAVPTWASVQVVDDPGSLASVESPGTPKETPIEREIRLAQEREADLREQRGLRQATDHQELVEIPTRPLLTKLSLITAPRRERGRPSLYVQRDIVQETQREEDHRREGLHVGRASTPDWVSEGPQPGLRRALSSDSILSPAPDARAADPAPEVRKVNRIPPDAYQPYLSPGTPQLEFSAFGAFGKPSSLSTAEAKAATSPKATMSPRHLSESSGKPLSTKQEASKPPRGCPQANRGVVRWEYFRLRPLRFRAPDEPQQAQVPHVWGWEVAGAPALRLQKSQSSDLLERERESVLRREQEVAEERRNALFPEVFSPTPDENSDQNSRSSSQASGITGSYSVSESPFFSPIHLHSNVAWTVEDPVDSAPPGQRKKEQWYAGINPSDGINSEVLEAIRVTRHKNAMAERWESRIYASEEDD | binds | binds

These are yes or no findings as the source states them, for the method shown. Binding seen in cells or lysates may run through a third protein. A yes stands for co-enrichment or nearness to the bait. Other partners may have been found.
